Source: article PMC10640761
Results are given in words; binding and its absence hold for the method and conditions named. Binding seen in cells or lysates may run through a third protein. Some entries that bind do so weakly or less than the wild type.

Sequences of proteins named here, by UniProt entry; tags and fusion partners are left off. Residues count along the entry.
UniProt P11680, residues 23-464: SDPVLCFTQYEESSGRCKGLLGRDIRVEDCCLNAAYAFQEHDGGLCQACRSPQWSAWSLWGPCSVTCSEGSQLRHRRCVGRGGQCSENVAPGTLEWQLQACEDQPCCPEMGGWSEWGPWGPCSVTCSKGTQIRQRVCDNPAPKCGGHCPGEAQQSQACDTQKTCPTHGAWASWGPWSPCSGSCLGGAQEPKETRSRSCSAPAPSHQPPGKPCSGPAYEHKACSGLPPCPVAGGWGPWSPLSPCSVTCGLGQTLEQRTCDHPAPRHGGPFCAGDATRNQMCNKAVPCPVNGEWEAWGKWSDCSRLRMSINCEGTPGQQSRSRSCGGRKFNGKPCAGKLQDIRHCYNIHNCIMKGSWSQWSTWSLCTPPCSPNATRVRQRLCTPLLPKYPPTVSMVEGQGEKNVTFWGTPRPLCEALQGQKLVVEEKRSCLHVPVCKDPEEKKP

Tests used:
[1] = target: T1, macrophage-inducible C-type lectin (Mincle) receptor (mouse (endogenous in primary microglia and brain tissue)) (UniProt Q9R0Q8); assay: co-IP; RIPA lysates of brain tissue (ischemic brain); IP with mouse anti-Mincle or control mouse IgG, Protein A/G PLUS-agarose; blot with anti-properdin
T1 sequence: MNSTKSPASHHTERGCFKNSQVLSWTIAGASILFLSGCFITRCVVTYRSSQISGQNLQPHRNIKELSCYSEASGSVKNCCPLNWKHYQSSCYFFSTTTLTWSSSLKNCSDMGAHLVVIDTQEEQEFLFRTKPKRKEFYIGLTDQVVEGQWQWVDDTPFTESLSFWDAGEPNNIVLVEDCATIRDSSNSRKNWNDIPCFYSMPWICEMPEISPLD

[2] = target: T1, macrophage-inducible C-type lectin (Mincle) receptor (mouse (endogenous in primary microglia and brain tissue)); assay: co-IP; RIPA lysates (500 µg protein) of primary microglia treated with or without 8 µg/ml rmProperdin; IP with 2 µg mouse anti-Mincle or control mouse IgG overnight at 4 °C, Protein A/G PLUS-agarose; blot with anti-properdin and anti-Mincle; only the binder purified
[3] = target: T1, macrophage-inducible C-type lectin (Mincle) receptor (mouse (endogenous in primary microglia and brain tissue)); assay: proximity ligation; Duolink PLA on fixed, permeabilised primary microglia treated with rmProperdin or left as control; mouse anti-Mincle and rabbit anti-properdin; signal if probes < 40 nm apart; only the binder purified

binding [1] | binding [2] | binding [3] | Substance
binds | – | – | properdin (endogenous, ischemic brain tissue) (from UniProt P11680 23-464)
– | binds | binds | eukaryotic recombinant mouse properdin (from UniProt P11680 23-464)
